# Source: PubChem BioAssay AID292 (DTP/NCI, 2004)
# The list is a part of this screen's results and no random one: it is rich in T/C values a quarter to a half above the control, in often repeated tests (any T/C) and in doses without a T/C. Further doses and runs are listed elsewhere. T/C gives the treated animals as a percentage of the vehicle group. Some doses have a count of surviving animals in place of a T/C: the source holds a T/C of zero for them, seemingly a mark for toxic or unscored doses. Some doses without a T/C left all or most animals alive at the check, yet need not have been tolerated: survival well below the control is almost never listed, so the zero probably covers shortened survival too. Counts of survivors are from the toxicity check (mostly the fifth day) where no day follows; animals may have died later. Schedule codes are those of the source, taken here to give the interval after Q, in days (D) or hours (H), and the number of doses after X. Some doses were run more than once; their values stand side by side, smallest first. Some molecules as drawn cover several salts, stereoisomers or complexes of the source; a dose is that of the sample tested. Where survival is the endpoint, this PubChem deposit counts one and a half times the control or more as active, and values a quarter to a half above the control carry no call in these data; other NCI protocols may use other cut-offs. Some T/C values carry the count of animals alive at the toxicity check (mostly the fifth day); where none is given, no animal had died by that day.
# Test system: B6C3F1 mice, ip Sarcoma M5076, median survival T/C
# Assay: NCI In Vivo Anticancer Drug Screen. Data for tumor model Sarcoma M5076 (intraperitoneal) in B6C3F1 mice
# Details: T/C endpoint: median survival time, schedule: Q04DX004 (ip), higher T/C = longer survival
# How it was run: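 Mice carrying the transplanted tumour received compound treatment. Survival was recorded, and each value is the treated-group measurement divided by that of the vehicle-dosed control group.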
# [1] = dose: 800.0 mg/kg/injection, vehicle: saline with Tween-80
# [2] = dose: 100.0 mg/kg/injection, vehicle: saline with Tween-80
# [3] = dose: 200.0 mg/kg/injection, vehicle: saline with Tween-80
# [4] = dose: 400.0 mg/kg/injection, vehicle: saline with Tween-80
# [5] = dose: 600.0 mg/kg/injection, vehicle: saline with Tween-80
# [6] = dose: 200.0 mg/kg/injection, vehicle: saline
# [7] = dose: 128.0 micrograms/kg/injection, vehicle: water
smiles,measurement,setting,value
C=CC1(C)CC(=O)C2(O)C(C)(O1)C(OC(C)=O)C(O)C1C(C)(C)CCC(O)C12C (centres undefined),survivor count,"dose: 64.0 mg/kg/injection, vehicle: DMSO",2 of 10 on day 14
same,survivor count,"dose: 128.0 mg/kg/injection, vehicle: DMSO",0 of 10 on day 14
same,survivor count,"dose: 256.0 mg/kg/injection, vehicle: DMSO",0 of 10 on day 14
CCOC(=O)Nc1cc2c(c(N)n1)N=C(c1ccccc1)CO2,T/C,[1],135 % of control
CCOC(=O)c1cc(-c2ccccc2)c(OC)c(=O)nc1-c1ccccc1,survivor count,[2],10 of 10 on day 14
same,survivor count,[3],10 of 10 on day 14
same,survivor count,[4],10 of 10 on day 14
same,survivor count,[1],10 of 10 on day 14
CC1CC(Nc2ccc(NC3=CC(=O)OC(C)C3)cc2)=CC(=O)O1 (centres undefined),survivor count,[5],10 of 10 on day 14
CN1C=C/C(=C/[N+](=O)[O-])N(C)C1=O,survivor count,"dose: 400.0 mg/kg/injection, vehicle: Klucel (hydroxypropylcellulose) (HPC)",1 of 10 on day 14
C[CH2][Sn]([Cl])([CH2]C)[c]1cc[c]([Sn]([Cl])([CH2]C)[CH2]C)cc1,survivor count,"dose: 1.0 mg/kg/injection, vehicle: Klucel (hydroxypropylcellulose) (HPC)",0 of 10 on day 14
O=c1c2ccccc2c2nccn2c2ccccc12,survivor count,"dose: 50.0 mg/kg/injection, vehicle: saline with Tween-80",10 of 10 on day 14
same,survivor count,[2],10 of 10 on day 14
same,survivor count,[3],10 of 10 on day 14
same,survivor count,[4],10 of 10 on day 14
same,survivor count,[1],8 of 10 on day 14
Nc1nc(N)c2cc(C=O)ccc2n1,survivor count,"dose: 25.0 mg/kg/injection, vehicle: water",5 of 10 on day 14 and 10 of 10 on day 14
same,survivor count,"dose: 50.0 mg/kg/injection, vehicle: water",0 of 10 on day 14
C=C1C(O)C2(O)OCC34C(CC5C(C)=CC(=O)C(O)C5(C)C23)OC(=O)C(OC(=O)C/C=C(\C)CCCCC)C14 (centres undefined),T/C,"dose: 4.0 mg/kg/injection, vehicle: saline + alcohol",141 % of control
same,survivor count,"dose: 16.0 mg/kg/injection, vehicle: saline + alcohol",2 of 10 on day 14 and 3 of 10 on day 14
same,survivor count,"dose: 32.0 mg/kg/injection, vehicle: saline + alcohol",0 of 10 on day 14
same,survivor count,"dose: 64.0 mg/kg/injection, vehicle: saline + alcohol",0 of 10 on day 14
CN(C)CCNC1=C(Cl)C(=O)c2ccccc2C1=O,survivor count,"dose: 24.0 mg/kg/injection, vehicle: saline",2 of 10 on day 14
same,survivor count,"dose: 25.0 mg/kg/injection, vehicle: saline",0 of 10 on day 14
same,survivor count,"dose: 50.0 mg/kg/injection, vehicle: saline",0 of 10 on day 14
same,survivor count,"dose: 100.0 mg/kg/injection, vehicle: saline",0 of 10 on day 14
same,survivor count,[6],0 of 10 on day 14
CC(O)C1(O)C(O)CC(OC2c3cc4c(c(O)c3[C@@H]3C[C@@]2(C)OC32C=c3cc[nH]c3=N2)C(=O)c2cccc(O)c2C4=O)OC1C (some centres undefined),survivor count,[2],0 of 10 on day 14
same,survivor count,[3],0 of 10 on day 14
O=C(Nc1ccccc1)c1cc2ccccc2oc1=O,survivor count,"dose: 112.5 mg/kg/injection, vehicle: saline with Tween-80",9 of 10 on day 14
same,survivor count,"dose: 225.0 mg/kg/injection, vehicle: saline with Tween-80",9 of 10 on day 14
same,survivor count,"dose: 450.0 mg/kg/injection, vehicle: saline with Tween-80",10 of 10 on day 14
O=c1cc(-c2ccccc2)[nH]c2c1CCCC2,survivor count,"dose: 1200.0 mg/kg/injection, vehicle: saline with Tween-80",4 of 10 on day 14
[N-]=[N+]=CC(=O)CCC(NC(=O)OCc1ccccc1)C(=O)OCc1ccccc1 (centres undefined),T/C,"dose: 50.0 mg/kg/injection, vehicle: Klucel (hydroxypropylcellulose) (HPC)",145 % of control
same,T/C,"dose: 100.0 mg/kg/injection, vehicle: Klucel (hydroxypropylcellulose) (HPC)",141 % of control
same,T/C,"dose: 200.0 mg/kg/injection, vehicle: Klucel (hydroxypropylcellulose) (HPC)",130 % of control [7 of 9 alive on day 14]
same,T/C,"dose: 400.0 mg/kg/injection, vehicle: Klucel (hydroxypropylcellulose) (HPC), evaluated on day 60",125 % of control [8 of 10 alive on day 14]
same,T/C,"dose: 400.0 mg/kg/injection, vehicle: Klucel (hydroxypropylcellulose) (HPC), evaluated on day 75",143 % of control [8 of 9 alive on day 14]
COc1cc2c(c(OC)c1OC)-c1ccc(OC)c(=O)cc1[C@@H](NC(C)=O)CC2,T/C,"dose: 1.5 mg/kg/injection, vehicle: saline",126 and 128 % of control [9 of 10 alive on day 14]
same,survivor count,"dose: 3.0 mg/kg/injection, vehicle: saline",1 of 10 on day 14
COC1=C(C)C(=O)C2=C(C1=O)C(CO)N1C(C#N)C3CC4C(C1C2N1CCOC41)N3C (centres undefined),survivor count,"dose: 4.0 mg/kg/injection, vehicle: acid diluted with saline",4 of 10 on day 14
same,survivor count,"dose: 8.0 mg/kg/injection, vehicle: acid diluted with saline",0 of 10 on day 14
same,survivor count,"dose: 16.0 mg/kg/injection, vehicle: acid diluted with saline",0 of 10 on day 14
Cc1ncc(CO)c(CO)c1OCC(O)CN1CCN(C(=O)c2ccccc2)CC1 (centres undefined),survivor count,[6],4 of 10 on day 14
same,survivor count,"dose: 400.0 mg/kg/injection, vehicle: saline",3 of 10 on day 14
CCc1n[nH]c(CC)c1CCCCCCOc1ccc(OC)cc1Cl,survivor count,"dose: 150.0 mg/kg/injection, vehicle: saline with Tween-80",10 of 10 on day 14
same,survivor count,"dose: 300.0 mg/kg/injection, vehicle: saline with Tween-80",5 of 10 on day 14
same,survivor count,[4],7 of 10 on day 14
same,survivor count,[5],0 of 10 on day 14
C=C1COC(O)(C2OCOC(C3CC(=O)NC(=O)C3)C2O)C1C (centres undefined),T/C,"dose: 8.0 micrograms/kg/injection, vehicle: water",129 % of control
same,T/C,"dose: 16.0 micrograms/kg/injection, vehicle: water",126 and 142 % of control
same,T/C,"dose: 23.0 micrograms/kg/injection, vehicle: water",125 % of control
same,T/C,"dose: 64.0 micrograms/kg/injection, vehicle: water","100 [8 of 10 alive on day 14], 102, 165, 172, 179 % of control"
same,T/C,"dose: 106.6 micrograms/kg/injection, vehicle: water",130 % of control
same,survivor count,"dose: 107.0 micrograms/kg/injection, vehicle: water",6 of 10 on day 14
same,T/C,[7],125 [9 of 10 alive] and 126 % of control
same,survivor count,[7],6 of 10 on day 14
same,survivor count,"dose: 178.0 micrograms/kg/injection, vehicle: water",0 of 10 on day 14
same,survivor count,"dose: 256.0 micrograms/kg/injection, vehicle: water",0 of 10 on day 14
N[C@@H](Cc1ccc(N(CCCl)CCCl)cc1)C(=O)O,T/C,"dose: 1.0 mg/kg/injection, vehicle: saline with Tween-80, evaluated on day 60",143 % of control
same,T/C,"dose: 1.0 mg/kg/injection, vehicle: saline with Tween-80, evaluated on day 69",138 % of control
same,T/C,"dose: 1.0 mg/kg/injection, vehicle: saline",135 % of control
same,T/C,"dose: 2.0 mg/kg/injection, vehicle: saline with Tween-80",140 % of control
same,survivor count,"dose: 8.0 mg/kg/injection, vehicle: saline with Tween-80",9 of 9 on day 14
